This assay addresses ALK (baculovirus expressed human ALK kinase domain F1098-K1410) (Homo sapiens, UniProt Q9UM73). The note with it: read-out: ALK IC50; 1 μM ATP, 4 μM poly-AEKY, 12 nM ALK, 2 hours at ambient temperature.

Amino acid sequences for entries named in this document (tags omitted). Residues count along the entry.
UniProt Q9UM73, 1098-1410 limits assumed: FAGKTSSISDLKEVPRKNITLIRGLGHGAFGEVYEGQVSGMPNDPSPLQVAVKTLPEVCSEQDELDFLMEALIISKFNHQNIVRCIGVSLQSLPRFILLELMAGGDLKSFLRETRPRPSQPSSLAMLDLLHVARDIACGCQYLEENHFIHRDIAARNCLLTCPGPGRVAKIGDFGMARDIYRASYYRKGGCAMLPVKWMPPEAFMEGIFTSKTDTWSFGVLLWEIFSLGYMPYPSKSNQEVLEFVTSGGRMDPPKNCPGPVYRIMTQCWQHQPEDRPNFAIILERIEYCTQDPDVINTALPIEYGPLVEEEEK

The match of structure and compound is tentative.

Turning to `CCc1ccc(CCNC(=O)c2csc(CNC(=O)COc3ccc(OC(F)(F)F)cc3)n2)cc1`, the IC50 (commonly the point on the concentration scale where inhibition reaches its midpoint) was under 50 nM.

For the origin of these results see patent publication US7973061B2, “Anaplastic lymphoma kinase modulators and methods of use” (Exelixis, Inc., priority 2004, dated 2011).
